For 28 compounds, TEAD-luciferase reporter activity results are on record in the supplement of paper PMC10735217.

In the assay the test system is HEK293A TEAD-LUC reporter. Description: TEAD-luciferase reporter activity (YAP activation), robust Z score vs plate; higher = stronger YAP/TEAD activation. Particulars: 24 h.

SMILES strings stand for the structures. The list shows a part of the results. Single values are uncertain here, since repeats match poorly.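 In a drug-repurposing library screen, luminescence reads luciferase driven by eight TEAD-binding elements, stably integrated into human kidney-derived cells. Compounds scoring over five robust Z scores above the plate mean are called hits.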

In the case of `COc1ccc(CCN(C)c2cn[nH]c(=O)c2Br)cc1OC`, the TEAD-luciferase reporter activity is inactive: -0.72 (compound concentration: 200 nM), inactive: -1.81 (compound concentration: 2 uM) and inactive: -0.739 (compound concentration: 10 uM).

Turning to `CNc1nc(=O)n(C2C[C@@H](O)[C@@H](CO)O2)cc1C` (some centres not stated), the TEAD-luciferase reporter activity is inactive: -1.45 (compound concentration: 200 nM), inactive: -0.993 (compound concentration: 2 uM) and inactive: -0.657 (compound concentration: 10 uM).

In the case of `O=C(O)CCNC(=O)C1CCCN(C(=O)CCC2CCNCC2)C1` (configuration not stated), the TEAD-luciferase reporter activity is, setting by setting: (compound concentration: 200 nM) inactive: -1.7; (compound concentration: 2 uM) inactive: 0.937; (compound concentration: 10 uM) inactive: 2.14.

In the case of `Cc1nc(C)c(-c2ccc([C@H]3CC[C@H](CC(=O)O)CC3)cc2)nc1C(N)=O`, the TEAD-luciferase reporter activity is, setting by setting: (compound concentration: 200 nM) inactive: 0.399; (compound concentration: 2 uM) inactive: -0.439; (compound concentration: 10 uM) inactive: 0.0691.

With `CC(=O)O[C@]1(C(C)=O)CC[C@H]2[C@@H]3C=C(Cl)C4=CC(=O)CC[C@]4(C)[C@H]3CC[C@@]21C` [amadi    acetate], the TEAD-luciferase reporter activity (compound concentration: 2 uM) is inactive: -1.13.

As to `CC(=O)O[C@]1(C(C)=O)CC[C@H]2[C@@H]3C=C(Cl)C4=CC(=O)CC[C@]4(C)[C@H]3CC[C@@]21C`, the TEAD-luciferase reporter activity is, setting by setting: (compound concentration: 200 nM) inactive: -1.32; (compound concentration: 10 uM) inactive: 0.777.

As to `O=C1CN2C(=O)CCC2N1` (configuration not stated) [Dimiracetam], the TEAD-luciferase reporter activity (compound concentration: 200 nM) was inactive: -1.69, the TEAD-luciferase reporter activity (compound concentration: 2 uM) was inactive: 1.69 and the TEAD-luciferase reporter activity (compound concentration: 10 uM) was inactive: 0.234.

Take `COc1ccc(S(=O)(=O)n2cc(CCC(=O)O)c3cc(OC)ccc32)cc1`: the TEAD-luciferase reporter activity is, setting by setting: (compound concentration: 200 nM) inactive: 4.27; (compound concentration: 2 uM) inactive: -0.142; (compound concentration: 10 uM) inactive: -0.137.

As to `CC(C)Cc1ccc(-c2nc(-c3ccc(C(C)NC4CC(C(=O)O)C4)cc3)no2)cc1` (configuration not stated), the TEAD-luciferase reporter activity was inactive: -1.05 (compound concentration: 200 nM), inactive: 0.845 (compound concentration: 2 uM) and inactive: 2.54 (compound concentration: 10 uM).

Regarding `CC1(C)CC[C@]2(C(=O)O)CC[C@]3(C)C(=CC[C@@H]4[C@@]5(C)CC[C@H](O)C(C)(C)[C@@H]5CC[C@]43C)[C@@H]2C1`, the TEAD-luciferase reporter activity was inactive: 0.0394 (compound concentration: 200 nM), inactive: 0.193 (compound concentration: 2 uM) and inactive: -0.382 (compound concentration: 10 uM).

For `CNC(=O)c1cc2c(Oc3ccc(C(F)(F)F)cc3)cncc2s1`, the TEAD-luciferase reporter activity is inactive: -1.34 (compound concentration: 200 nM), inactive: -2.89 (compound concentration: 2 uM) and inactive: -2.12 (compound concentration: 10 uM).

As to `N=C(N)N1CCc2ccc(OCC3(C(=O)O)CCN(c4ccncc4)CC3)cc2C1`, the TEAD-luciferase reporter activity reads like this: (compound concentration: 200 nM) inactive: -1.62; (compound concentration: 2 uM) inactive: -0.213; (compound concentration: 10 uM) inactive: 1.8.

Turning to `COC(=O)Nc1cn2nc(OCc3cc(OC)c(OC)c(OC)c3)ccc2n1`, the TEAD-luciferase reporter activity (compound concentration: 200 nM) was inactive: 3.98, the TEAD-luciferase reporter activity (compound concentration: 2 uM) is active: 5.37 and the TEAD-luciferase reporter activity (compound concentration: 10 uM) was inactive: 4.95.

With `CC(=O)O[C@]1(C(C)=O)CC[C@H]2[C@@H]3CCC4=CC(=O)CCC4=C3[C@@H](c3ccc(N(C)C)cc3)C[C@@]21C` [ulipristal acetate], the TEAD-luciferase reporter activity (compound concentration: 200 nM) is inactive: 1.13, the TEAD-luciferase reporter activity (compound concentration: 2 uM) was inactive: -1.42 and the TEAD-luciferase reporter activity (compound concentration: 10 uM) is inactive: 2.48.

For the compound `COc1cc(C)nc(-n2nc(C)cc2OC)n1` [epirizole], under “compound concentration: 2 uM”, the TEAD-luciferase reporter activity is inactive: -0.724.

For `COc1cc(C)nc(-n2nc(C)cc2OC)n1`, the TEAD-luciferase reporter activity by setting is: (compound concentration: 200 nM) inactive: 0.891; (compound concentration: 10 uM) inactive: 0.33.

In the case of `Cc1ccc(CNCC2(F)CCN(C(=O)c3ccc(F)c(Cl)c3)CC2)nc1`, the TEAD-luciferase reporter activity was inactive: 0.74 (compound concentration: 200 nM), inactive: -0.624 (compound concentration: 2 uM) and inactive: -0.879 (compound concentration: 10 uM).

For the compound `O=C(/C=C/C#Cc1cccc(NS(=O)(=O)c2ccccc2)c1)NO`, the TEAD-luciferase reporter activity by setting is: (compound concentration: 200 nM) inactive: -2.85; (compound concentration: 2 uM) active: 7.28; (compound concentration: 10 uM) inactive: 4.52.

For the compound `C=CCN1CCN(C(c2ccccc2)c2ccccc2)CC1` [Aligeron], the TEAD-luciferase reporter activity runs as follows: (compound concentration: 200 nM) inactive: 1.27; (compound concentration: 2 uM) inactive: 1.66; (compound concentration: 10 uM) inactive: 1.76.

As to `CC(C)S(=O)(=O)NC[C@H](C)c1ccc(-c2ccc(CCNS(C)(=O)=O)cc2)cc1` [mibampator], the TEAD-luciferase reporter activity runs as follows: (compound concentration: 200 nM) inactive: 0.853; (compound concentration: 2 uM) inactive: -1.16; (compound concentration: 10 uM) inactive: -0.274.

With `CCCc1nn(C)c2c(=O)[nH]c(-c3cc(S(=O)(=O)N4CCN(C)CC4)ccc3OCC)nc12` [sildenafil, Kedem Pharmaceuticals], the TEAD-luciferase reporter activity reads like this: (compound concentration: 200 nM) inactive: -0.526; (compound concentration: 2 uM) inactive: -0.721; (compound concentration: 10 uM) inactive: -1.3.

For `Nc1cccc(OCCCNCC2COc3cc4c(cc3O2)OCO4)c1` (configuration not stated), the TEAD-luciferase reporter activity runs as follows: (compound concentration: 200 nM) inactive: -0.811; (compound concentration: 2 uM) inactive: 0.0597; (compound concentration: 10 uM) inactive: 0.226.

Consider `C[C@@H](N)CCNCCCCNC(=O)OCC(=O)NCCCCCCNC(=N)N`, for which the TEAD-luciferase reporter activity is, setting by setting: (compound concentration: 200 nM) inactive: -1.09; (compound concentration: 2 uM) inactive: -1.03; (compound concentration: 10 uM) inactive: 0.565.

On to `C[N+]1(C)CCC(=C(c2ccccc2)c2ccccc2)CC1` [Diphenmanil (methylsulfate)], for which, under “compound concentration: 2 uM”, the TEAD-luciferase reporter activity was inactive: -0.164.

With `C[N+]1(C)CCC(=C(c2ccccc2)c2ccccc2)CC1` [Diphemanil], the TEAD-luciferase reporter activity reads like this: (compound concentration: 200 nM) inactive: 0.224; (compound concentration: 10 uM) inactive: -1.31.

Turning to `COc1cc(/C=C/C(=O)O)ccc1O`, the TEAD-luciferase reporter activity was inactive: 0.0553 (compound concentration: 200 nM) and inactive: -0.765 (compound concentration: 10 uM).

As to `COc1cc(/C=C/C(=O)O)ccc1O` [Ferulic acid (sodium)], the TEAD-luciferase reporter activity (compound concentration: 2 uM) was inactive: 0.122.

As to `C[C@@H]1c2ccccc2CCN1C(=O)c1cc2ncc(Br)cn2n1`, the TEAD-luciferase reporter activity is, setting by setting: (compound concentration: 200 nM) inactive: -0.397; (compound concentration: 2 uM) inactive: 1.11; (compound concentration: 10 uM) inactive: 1.73.
